Assay results published in patent US20050130203A1, “Novel GABAB receptor DNA sequences” (Board of Regents, The University of Texas System, priority 1998, published 2005).

Test system: wild-type HEK293 cells

SMILES: NCCCC(=O)O [GABA, γ-amino-butyric acid]
- inhibition of forskolin-stimulated cAMP synthesis: did not exhibit
